Measured values reported in doi:10.1101/059964.
No constants are given. Whether binding was seen depends on the method and setting. Binding seen in cells or lysates may run through a third protein. A yes stands for co-enrichment or nearness to the bait. Other partners may have been found. For part of these data: A no says only that the protein was not detected with the bait.

By UniProt entry, the sequences of proteins in these tests, tags left out.
UniProt Q06587: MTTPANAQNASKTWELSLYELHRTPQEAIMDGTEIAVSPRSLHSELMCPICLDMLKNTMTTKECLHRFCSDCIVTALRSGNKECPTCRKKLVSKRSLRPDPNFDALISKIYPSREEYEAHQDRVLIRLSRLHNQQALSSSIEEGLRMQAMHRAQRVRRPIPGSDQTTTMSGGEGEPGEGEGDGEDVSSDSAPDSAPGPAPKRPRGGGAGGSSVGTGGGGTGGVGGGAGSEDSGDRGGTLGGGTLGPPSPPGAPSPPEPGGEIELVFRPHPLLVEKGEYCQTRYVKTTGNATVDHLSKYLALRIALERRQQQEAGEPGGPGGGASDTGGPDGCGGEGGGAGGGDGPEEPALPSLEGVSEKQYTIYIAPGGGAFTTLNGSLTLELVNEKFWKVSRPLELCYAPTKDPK
UniProt Q86SE9: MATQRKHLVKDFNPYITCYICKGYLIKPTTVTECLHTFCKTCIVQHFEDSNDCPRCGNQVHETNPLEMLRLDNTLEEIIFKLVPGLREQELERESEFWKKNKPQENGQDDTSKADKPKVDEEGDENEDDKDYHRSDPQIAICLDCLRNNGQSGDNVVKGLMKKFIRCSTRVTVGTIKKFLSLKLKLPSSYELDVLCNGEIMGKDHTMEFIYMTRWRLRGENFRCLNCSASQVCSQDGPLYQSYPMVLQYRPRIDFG
UniProt P68400: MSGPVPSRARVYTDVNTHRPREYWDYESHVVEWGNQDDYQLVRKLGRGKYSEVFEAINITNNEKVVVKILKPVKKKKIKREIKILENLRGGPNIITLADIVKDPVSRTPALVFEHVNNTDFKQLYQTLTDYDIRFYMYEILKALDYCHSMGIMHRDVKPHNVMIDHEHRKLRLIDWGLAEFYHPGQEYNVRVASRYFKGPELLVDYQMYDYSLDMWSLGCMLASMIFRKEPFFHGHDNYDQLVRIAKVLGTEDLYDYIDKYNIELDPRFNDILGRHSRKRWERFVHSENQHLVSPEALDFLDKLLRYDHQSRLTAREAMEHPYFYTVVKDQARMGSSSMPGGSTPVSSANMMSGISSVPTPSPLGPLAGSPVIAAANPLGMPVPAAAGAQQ
UniProt Q99496: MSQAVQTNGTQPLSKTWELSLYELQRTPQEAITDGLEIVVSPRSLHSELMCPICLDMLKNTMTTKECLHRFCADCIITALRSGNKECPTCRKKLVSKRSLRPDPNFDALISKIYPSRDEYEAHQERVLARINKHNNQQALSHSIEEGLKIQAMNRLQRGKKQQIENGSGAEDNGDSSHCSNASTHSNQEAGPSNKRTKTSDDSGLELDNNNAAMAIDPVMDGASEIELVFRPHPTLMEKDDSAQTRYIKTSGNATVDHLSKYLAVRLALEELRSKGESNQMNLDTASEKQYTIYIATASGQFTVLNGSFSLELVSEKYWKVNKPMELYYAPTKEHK
UniProt Q9HC52: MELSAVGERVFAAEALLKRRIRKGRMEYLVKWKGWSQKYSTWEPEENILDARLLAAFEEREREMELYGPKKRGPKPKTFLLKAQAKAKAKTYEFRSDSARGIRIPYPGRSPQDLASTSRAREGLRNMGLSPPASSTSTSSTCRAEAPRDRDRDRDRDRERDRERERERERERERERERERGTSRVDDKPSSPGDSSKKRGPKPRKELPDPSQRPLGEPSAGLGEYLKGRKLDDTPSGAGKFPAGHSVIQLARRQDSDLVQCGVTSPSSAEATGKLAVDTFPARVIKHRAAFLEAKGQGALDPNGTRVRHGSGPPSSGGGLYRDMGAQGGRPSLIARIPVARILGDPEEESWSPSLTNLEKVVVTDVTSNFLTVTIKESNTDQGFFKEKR
UniProt P63208: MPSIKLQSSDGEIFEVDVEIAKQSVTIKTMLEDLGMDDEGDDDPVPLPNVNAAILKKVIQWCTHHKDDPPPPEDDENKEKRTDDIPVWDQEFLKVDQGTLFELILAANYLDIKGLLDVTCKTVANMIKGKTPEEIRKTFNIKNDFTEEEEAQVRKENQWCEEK
UniProt Q9BSM1: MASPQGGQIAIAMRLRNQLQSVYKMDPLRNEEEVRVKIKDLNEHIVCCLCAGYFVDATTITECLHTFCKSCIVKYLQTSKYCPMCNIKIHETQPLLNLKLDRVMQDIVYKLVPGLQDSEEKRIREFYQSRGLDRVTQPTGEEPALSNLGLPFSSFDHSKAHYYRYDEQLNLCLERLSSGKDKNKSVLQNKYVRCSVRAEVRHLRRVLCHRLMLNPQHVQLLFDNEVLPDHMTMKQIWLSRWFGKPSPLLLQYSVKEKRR

Legend:
Test in all cases: affinity purification with mass spectrometry
PCGF3 (human) = target: T1, PCGF3 (human) (UniProt Q3KNV8)
T1 sequence: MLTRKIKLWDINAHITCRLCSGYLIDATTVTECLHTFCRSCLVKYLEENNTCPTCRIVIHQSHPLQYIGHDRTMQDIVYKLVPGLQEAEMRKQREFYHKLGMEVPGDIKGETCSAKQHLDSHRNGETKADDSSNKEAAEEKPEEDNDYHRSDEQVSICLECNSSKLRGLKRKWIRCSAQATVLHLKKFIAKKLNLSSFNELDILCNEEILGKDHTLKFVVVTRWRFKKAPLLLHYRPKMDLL

CSK22 (human) = CSK22 (human) (UniProt P19784)
RING1 (human) = RING1 (human) (UniProt Q06587)
CBX4 (human) = target: T2, CBX4 (human) (UniProt O00257)
T2 sequence: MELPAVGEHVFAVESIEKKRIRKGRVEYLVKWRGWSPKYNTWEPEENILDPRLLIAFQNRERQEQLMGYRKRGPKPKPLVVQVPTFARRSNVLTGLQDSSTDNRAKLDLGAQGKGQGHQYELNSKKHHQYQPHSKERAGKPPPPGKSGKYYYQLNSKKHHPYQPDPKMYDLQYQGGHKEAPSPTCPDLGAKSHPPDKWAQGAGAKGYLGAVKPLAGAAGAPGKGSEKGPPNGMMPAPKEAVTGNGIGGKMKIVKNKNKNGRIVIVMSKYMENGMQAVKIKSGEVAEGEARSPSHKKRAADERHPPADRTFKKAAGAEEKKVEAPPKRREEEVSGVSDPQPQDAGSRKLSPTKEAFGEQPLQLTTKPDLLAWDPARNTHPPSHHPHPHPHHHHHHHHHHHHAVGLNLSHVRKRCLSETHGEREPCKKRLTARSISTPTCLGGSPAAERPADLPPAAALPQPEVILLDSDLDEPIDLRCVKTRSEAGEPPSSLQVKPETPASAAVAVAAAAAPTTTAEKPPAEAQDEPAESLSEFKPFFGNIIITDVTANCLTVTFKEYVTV

PCGF5 (human) = PCGF5 (human) (UniProt Q86SE9)
CSK21 (human) = CSK21 (human) (UniProt P68400)
RING2 (human) = RING2 (human) (UniProt Q99496)
CBX6 (human) = target: T3, CBX6 (human) (UniProt O95503)
T3 sequence: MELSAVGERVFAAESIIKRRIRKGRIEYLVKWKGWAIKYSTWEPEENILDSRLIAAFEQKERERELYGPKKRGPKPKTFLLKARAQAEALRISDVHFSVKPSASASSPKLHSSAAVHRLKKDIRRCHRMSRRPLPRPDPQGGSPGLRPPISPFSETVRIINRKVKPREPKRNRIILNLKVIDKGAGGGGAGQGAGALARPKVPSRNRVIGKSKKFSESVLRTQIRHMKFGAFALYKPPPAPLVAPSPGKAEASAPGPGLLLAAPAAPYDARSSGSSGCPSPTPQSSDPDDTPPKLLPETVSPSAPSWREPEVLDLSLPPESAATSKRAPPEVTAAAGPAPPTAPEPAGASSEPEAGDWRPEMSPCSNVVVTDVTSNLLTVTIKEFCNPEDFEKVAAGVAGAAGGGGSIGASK

CBX8 (human) = CBX8 (human) (UniProt Q9HC52)
PCGF6 (human) = target: T4, PCGF6 (human) (UniProt Q9BYE7)
T4 sequence: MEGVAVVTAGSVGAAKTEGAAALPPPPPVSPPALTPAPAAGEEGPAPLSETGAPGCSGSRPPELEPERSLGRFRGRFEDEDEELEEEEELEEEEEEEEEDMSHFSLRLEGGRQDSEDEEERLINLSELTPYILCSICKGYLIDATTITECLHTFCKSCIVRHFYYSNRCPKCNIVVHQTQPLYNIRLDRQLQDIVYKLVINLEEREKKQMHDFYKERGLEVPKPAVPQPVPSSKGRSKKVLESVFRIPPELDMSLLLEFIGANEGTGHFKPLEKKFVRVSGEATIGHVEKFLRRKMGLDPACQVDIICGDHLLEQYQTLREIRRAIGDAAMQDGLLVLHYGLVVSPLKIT

YAF2 (human) = target: T5, YAF2 (human) (UniProt Q8IY57)
T5 sequence: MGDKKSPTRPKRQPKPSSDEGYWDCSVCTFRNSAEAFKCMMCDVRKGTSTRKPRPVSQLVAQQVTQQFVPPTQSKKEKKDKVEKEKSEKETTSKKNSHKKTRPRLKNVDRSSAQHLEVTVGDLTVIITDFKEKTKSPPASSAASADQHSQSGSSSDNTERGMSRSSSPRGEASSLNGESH

RYBP (human) = target: T6, RYBP (human) (UniProt Q8N488)
T6 sequence: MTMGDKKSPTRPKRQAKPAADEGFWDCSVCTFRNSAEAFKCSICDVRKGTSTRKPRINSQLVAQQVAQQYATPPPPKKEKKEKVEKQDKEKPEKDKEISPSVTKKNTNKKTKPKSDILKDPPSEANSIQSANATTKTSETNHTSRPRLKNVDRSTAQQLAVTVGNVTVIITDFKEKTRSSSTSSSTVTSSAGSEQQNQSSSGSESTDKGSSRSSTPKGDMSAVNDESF

SKP1 (human) = SKP1 (human) (UniProt P63208)
PCGF1 (human) = PCGF1 (human) (UniProt Q9BSM1)
OGT1 (human), O15294 = target: T7, OGT1 (human), O15294; settings: remark: other sources report otherwise
T7 chain: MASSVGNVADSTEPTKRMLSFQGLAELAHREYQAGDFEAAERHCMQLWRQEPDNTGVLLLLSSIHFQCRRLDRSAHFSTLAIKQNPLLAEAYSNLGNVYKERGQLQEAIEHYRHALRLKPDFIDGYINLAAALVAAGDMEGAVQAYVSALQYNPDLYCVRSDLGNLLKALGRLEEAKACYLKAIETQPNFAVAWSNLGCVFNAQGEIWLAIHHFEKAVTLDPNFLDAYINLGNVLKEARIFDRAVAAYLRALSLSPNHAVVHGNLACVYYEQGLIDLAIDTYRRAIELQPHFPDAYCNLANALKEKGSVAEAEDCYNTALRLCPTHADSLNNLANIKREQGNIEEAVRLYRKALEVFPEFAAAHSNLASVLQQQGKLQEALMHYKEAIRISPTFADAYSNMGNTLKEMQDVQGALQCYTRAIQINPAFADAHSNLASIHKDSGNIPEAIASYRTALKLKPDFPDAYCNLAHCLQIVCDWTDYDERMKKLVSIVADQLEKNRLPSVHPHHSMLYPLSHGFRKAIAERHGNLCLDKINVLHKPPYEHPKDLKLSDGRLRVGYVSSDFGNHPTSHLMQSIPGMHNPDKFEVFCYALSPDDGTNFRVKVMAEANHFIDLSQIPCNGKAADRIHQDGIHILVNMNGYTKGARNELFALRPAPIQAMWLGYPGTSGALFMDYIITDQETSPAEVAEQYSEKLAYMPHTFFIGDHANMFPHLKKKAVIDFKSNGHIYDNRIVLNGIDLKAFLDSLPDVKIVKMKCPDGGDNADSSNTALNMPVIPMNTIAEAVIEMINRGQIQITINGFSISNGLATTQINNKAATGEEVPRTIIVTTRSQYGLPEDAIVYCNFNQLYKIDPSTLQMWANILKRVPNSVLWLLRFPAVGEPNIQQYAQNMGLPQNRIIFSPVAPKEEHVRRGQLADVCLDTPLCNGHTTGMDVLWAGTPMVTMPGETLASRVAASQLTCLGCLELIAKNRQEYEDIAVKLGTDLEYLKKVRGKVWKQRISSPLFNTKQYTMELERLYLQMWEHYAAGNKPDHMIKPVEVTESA

B1: DCAF7 (protein, UniProt P61962 1-342)
chain: MSLHGKRKEIYKYEAPWTVYAMNWSVRPDKRFRLALGSFVEEYNNKVQLVGLDEESSEFICRNTFDHPYPTTKLMWIPDTKGVYPDLLATSGDYLRVWRVGETETRLECLLNNNKNSDFCAPLTSFDWNEVDPYLLGTSSIDTTCTIWGLETGQVLGRVNLVSGHVKTQLIAHDKEVYDIAFSRAGGGRDMFASVGADGSVRMFDLRHLEHSTIIYEDPQHHPLLRLCWNKQDPNYLATMAMDGMEVVILDVRVPCTPVARLNNHRACVNGIAWAPHSSCHICTAADDHQALIWDIQQMPRAIEDPILAYTAEGEINNVQWASTQPDWIAICYNNCLEILRV
binding (PCGF3 (human)): binds
binding (CSK22 (human)): binds
binding (RING1 (human)): binds
binding (CBX4 (human)): binds
binding (PCGF5 (human)): binds
binding (CSK21 (human)): binds
binding (RING2 (human)): binds
binding (CBX6 (human)): binds
binding (CBX8 (human)): binds
binding (PCGF6 (human)): binds
binding (YAF2 (human)): binds
binding (RYBP (human)): binds

B2: KDM2B (protein, UniProt Q8NHM5 1-1336)
chain: MAGPQMGGSAEDHPPRKRHAAEKQKKKTVIYTKCFEFESATQRPIDRQRYDENEDLSDVEEIVSVRGFSLEEKLRSQLYQGDFVHAMEGKDFNYEYVQREALRVPLIFREKDGLGIKMPDPDFTVRDVKLLVGSRRLVDVMDVNTQKGTEMSMSQFVRYYETPEAQRDKLYNVISLEFSHTKLEHLVKRPTVVDLVDWVDNMWPQHLKEKQTEATNAIAEMKYPKVKKYCLMSVKGCFTDFHIDFGGTSVWYHVFRGGKIFWLIPPTLHNLALYEEWVLSGKQSDIFLGDRVERCQRIELKQGYTFFIPSGWIHAVYTPVDSLVFGGNILHSFNVPMQLRIYEIEDRTRVQPKFRYPFYYEMCWYVLERYVYCVTQRSHLTQEYQRESMLIDAPRKPSIDGFSSDSWLEMEEEACDQQPQEEEEKDEEGEGRDRAPKPPTDGSTSPTSTPSEDQEALGKKPKAPALRFLKRTLSNESEESVKSTTLAVDYPKTPTGSPATEVSAKWTHLTEFELKGLKALVEKLESLPENKKCVPEGIEDPQALLEGVKNVLKEHADDDPSLAITGVPVVTWPKKTPKNRAVGRPKGKLGPASAVKLAANRTTAGARRRRTRCRKCEACLRTECGECHFCKDMKKFGGPGRMKQSCIMRQCIAPVLPHTAVCLVCGEAGKEDTVEEEEGKFNLMLMECSICNEIIHPGCLKIKESEGVVNDELPNCWECPKCNHAGKTGKQKRGPGFKYASNLPGSLLKEQKMNRDNKEGQEPAKRRSECEEAPRRRSDEHSKKVPPDGLLRRKSDDVHLRKKRKYEKPQELSGRKRASSLQTSPGSSSHLSPRPPLGSSLSPWWRSSLTYFQQQLKPGKEDKLFRKKRRSWKNAEDRMALANKPLRRFKQEPEDELPEAPPKTRESDHSRSSSPTAGPSTEGAEGPEEKKKVKMRRKRRLPNKELSRELSKELNHEIQRTENSLANENQQPIKSEPESEGEEPKRPPGICERPHRFSKGLNGTPRELRHQLGPSLRSPPRVISRPPPSVSPPKCIQMERHVIRPPPISPPPDSLPLDDGAAHVMHREVWMAVFSYLSHQDLCVCMRVCRTWNRWCCDKRLWTRIDLNHCKSITPLMLSGIIRRQPVSLDLSWTNISKKQLSWLINRLPGLRDLVLSGCSWIAVSALCSSSCPLLRTLDVQWVEGLKDAQMRDLLSPPTDNRPGQMDNRSKLRNIVELRLAGLDITDASLRLIIRHMPLLSKLHLSYCNHVTDQSINLLTAVGTTTRDSLTEINLSDCNKVTDQCLSFFKRCGNICHIDLRYCKQVTKEGCEQFIAEMSVSVQFGQVEEKLLQKLS
binding (SKP1 (human)): binds
binding (PCGF1 (human)): binds

B3: FOXK2, Q01167 1-660 (protein)
chain: MAAAAAALSGAGTPPAGGGAGGGGAGGGGSPPGGWAVARLEGREFEYLMKKRSVTIGRNSSQGSVDVSMGHSSFISRRHLEIFTPPGGGGHGGAAPELPPAQPRPDAGGDFYLRCLGKNGVFVDGVFQRRGAPPLQLPRVCTFRFPSTNIKITFTALSSEKREKQEASESPVKAVQPHISPLTINIPDTMAHLISPLPSPTGTISAANSCPSSPRGAGSSGYKVGRVMPSDLNLMADNSQPENEKEASGGDSPKDDSKPPYSYAQLIVQAITMAPDKQLTLNGIYTHITKNYPYYRTADKGWQNSIRHNLSLNRYFIKVPRSQEEPGKGSFWRIDPASESKLIEQAFRKRRPRGVPCFRTPLGPLSSRSAPASPNHAGVLSAHSSGAQTPESLSREGSPAPLEPEPGAAQPKLAVIQEARFAQSAPGSPLSSQPVLITVQRQLPQAIKPVTYTVATPVTTSTSQPPVVQTVHVVHQIPAVSVTSVAGLAPANTYTVSGQAVVTPAAVLAPPKAEAQENGDHREVKVKVEPIPAIGHATLGTASRIIQTAQTTPVQTVTIVQQAPLGQHQLPIKTVTQNGTHVASVPTAVHGQVNNAAASPLHMLATHASASASLPTKRHNGDQPEQPELKRIKTEDGEGIVIALSVDTPPAAVREKGVQN
binding (OGT1 (human), O15294): no binding
